# Measured values as given in PubChem BioAssay AID1458 (National Center for Advancing Translational Sciences (NCATS), 2008).
# The whole screen tested about 210,000 compounds, of which about 5,900 (2.8%) were called active. Roughly 5% stayed inconclusive and do not appear here. Calls come from the whole dose curve; as a rule, active = well fitted activation curve with a large enough effect; inconclusive = small, poorly fitted or top-dose-only effect; inactive = no such curve, though single readings can be large or run the other way. Only a part is listed here, and it is no random draw. Entries without a call were filed so in the source.
# Assay: qHTS Assay for Enhancers of SMN2 Splice Variant Expression; note: nearly all actives have a fitted effect of over 55% in size; for activity change, positive = activation: % of control where 0% means no effect
# Settings: HEK293 SMN2-luciferase splicing reporter, luminescence, 30-36 h; activity change, positive = activation: at 46.1 µM (top of the series) unless noted
# Method in brief: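 qHTS luciferase splicing reporter: luminescence rises when SMN2 exon 7 is included in transfected HEK293 cells. Compound exposure lasted 30-36 h at 37C, with 4.5 mM final sodium butyrate as control, followed by a ONE-Glo read.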
# Potency is the fitted concentration of half-maximal effect.
Structure (SMILES),Potency,"activity change, positive = activation"
CCn1cnc2cc(NC(=O)c3cccs3)ccc21,active: 12.6 µM,–
CCC(C)NS(=O)(=O)c1ccc(S(=O)(=O)N2CC=C(c3ccc(F)cc3)CC2)cc1 (stereo unspecified),–,inactive: -77.4%
c1ccc2c(c1)CCN(c1nc3cc4c(cc3s1)OCO4)C2,active: 2.24 µM,–
COc1ccc(C2CC(=O)N(Cc3ccc(F)cc3)c3ccccc3S2)cc1OC (stereo unspecified),–,inactive: -42%
Cc1sc(NC(=O)c2ccco2)c(C(c2cccnc2)N2CCC(C)CC2)c1C (stereo unspecified),–,-74.1%
O=[N+]([O-])c1ccc(N/N=C/c2ccc[nH]2)cc1,–,inactive: -32.1%
O=C(CSC1=NC(=O)C(c2ccccc2)C(=O)N1)Nc1ccccc1[N+](=O)[O-] (stereo unspecified),–,40.7%
C=CCSc1nc(=O)n2ccc(C)cc2n1,–,34.6%
CC(C)(C)c1ccc(C(=O)Nc2ccccc2Cl)cc1,–,38.7%
O=C(Nc1ccc2c(c1)OCO2)c1ccc(Br)s1,active: 12.6 µM,–
CCOc1ccc(C(=O)Nc2ccccc2CC)cc1[N+](=O)[O-],–,inactive: 8.8%
CCN1CCN(C(=O)c2nn(-c3ccccc3)c(=O)c3ccccc23)CC1,–,31%
CCC(C)C(=O)Nc1c2c(nc3c1CCC3)CCCC2 (stereo unspecified),–,44.6%
O=C(CSc1nnc(Cc2ccccc2)o1)c1cc(F)ccc1F,–,32.5%
CNC(=O)c1sc2nc(-c3ccc(OC)cc3)cn2c1C,–,94.4%
Fc1ccc(Nc2nc3nonc3nc2Nc2cccc(C(F)(F)F)c2)cc1,–,inactive: -64.5%
O=C(O)c1ccccc1NN=C1CCCCC1,–,120%
COc1cc(/C=N/O)ccc1OCc1ccccc1Cl,active: 11.2 µM,–
CCn1cnc2cc(NCc3ccncc3)ccc21,–,30.2%
Cc1ccc(NC(=O)CCCc2ccccc2)nc1,active: 15.8 µM,–
O=C(Nc1ccc2c(c1)CCC2)c1ccccc1F,active: 4.47 µM,–
NNc1nc2c(-c3ccc(Cl)cc3)nnn2c2ccccc12,active: 12.6 µM,–
CN(CC(=O)Nc1ccccc1Sc1ccccc1)Cc1nc2ccccc2c(=O)[nH]1,–,-37.5%
O=C(Nc1ccc2nc3n(c(=O)c2c1)CCCCC3)c1ccccc1Cl,–,-24.8%

Structure (SMILES),Potency,"activity change, positive = activation"
CCN(CCC(=O)O)c1ccccc1,–,34.2%
Cc1[nH]nc(SCC(=O)N2CCCCC2)c1[N+](=O)[O-],–,52.9%
Cc1cc(C)nc(SCc2ccc(C(=O)NNC(=O)Nc3cccc(Cl)c3)cc2)n1,–,-112%
O=C(COc1ccccc1Cl)Nc1ccc2c(c1)OCCO2,–,41.8%
CCc1cccc(C)c1NC(=O)c1ccc(CN2CCc3ccccc3C2)cc1,–,-43.9%
c1ccc(-n2ncc3c(NCc4cccs4)ncnc32)cc1,active: 11.2 µM,–
CCc1nnc(NC(=O)Cc2ccc(OC)cc2)s1,–,49.7%
CCC(CC)C(=O)N1CCN(c2cccc(C)c2C)CC1,–,-62.4%
O=C(Nc1ccc(OC(F)(F)F)cc1)C(Cc1ccccc1)NS(=O)(=O)c1cccc2nsnc12 (stereo unspecified),–,inactive: -30.9%
c1ccc(CSCc2cn3ccsc3n2)cc1,active: 12.6 µM,–
CCn1c(C)nc2cc(C(=O)N/N=C/c3ccccc3)ccc21,active: 17.8 µM,–
COCC(=O)N1CCC2(CC1)CN(c1ccc(-c3ccccc3)cc1)C2,–,inactive: -44.5%
Cc1ccc(Cc2cnc(NC(=O)CN3CCOCC3)s2)cc1Cl,–,-52.1%
Cn1nc(/C=C/c2ccccc2)ccc1=O,active: 12.6 µM,–
O=C(CN1C(=O)c2cccc3cccc1c23)N1CCN(c2cccc(Cl)c2)CC1,–,40.4%
CC(Oc1ccccc1)C(=O)Nc1ccccc1F (stereo unspecified),–,35.5%
O=C(Nc1ccc(N2CCN(c3ccc(O)cc3)CC2)cc1)Oc1ccccc1,–,37.5%
CSc1nc(NC(C)C)nc(N2CCOCC2)n1,–,28.2%
O=c1c(Br)c(Br)cnn1-c1ccccc1,–,inactive: -104%
O=C(CSc1nnc(NC(=O)Cc2ccc(F)cc2)s1)NCc1ccco1,–,36.4%
COc1ccc(CCNC(=O)c2cc(-c3ccco3)on2)cc1OC,–,inactive: -29%
CN1CCN(C2=C(Cl)C(=O)N(CCc3ccccc3)C2=O)CC1,active: 12.6 µM,–
CCCCNc1ccc(C(=O)OCCN(C)C)cc1,–,-30.9%
Cc1ccn2c(CN3CCOCC3)c(-c3ccccc3)nc2c1,active: 20 µM,–

# Part of the list above, with tabs:
Structure (SMILES)	Potency	activity change, positive = activation
O=C(Nc1ccc(OC(F)(F)F)cc1)C(Cc1ccccc1)NS(=O)(=O)c1cccc2nsnc12 (stereo unspecified)	–	inactive: -30.9%
O=c1c(Br)c(Br)cnn1-c1ccccc1	–	inactive: -104%

# Quoted at random: 2 records from the list.
Structure (SMILES),Potency,"activity change, positive = activation"
Cc1cc(C)nc(SCc2ccc(C(=O)NNC(=O)Nc3cccc(Cl)c3)cc2)n1,–,-112%
Cc1ccn2c(CN3CCOCC3)c(-c3ccccc3)nc2c1,active: 20 µM,–

# The listing continues:

Structure (SMILES),Potency,"activity change, positive = activation"
Cc1ccc(-n2c(Cn3c(C)nc4ccccc43)n[nH]c2=S)cc1,–,14%
Nc1nc(NC(=O)C(Cl)(Cl)Cl)nn1-c1ccccc1,–,5.61%
Cc1ccccc1C(=O)NCc1nnc(SCC(=O)N2CCN(c3ccccc3)CC2)n1C,–,-33.4%
Cc1cc(C(=O)N/N=C/c2cc([N+](=O)[O-])cc(C)c2O)n[nH]1,–,-86.1%
CCCNC(=O)c1noc2c1CCc1ccccc1-2,active: 15.8 µM,–
O=C(NCCc1nc2ccccc2[nH]1)/C(=C/c1ccco1)NC(=O)c1ccco1,–,17.9%
Cc1ccc(NS(=O)(=O)c2cc(C(=O)Nc3cccc([N+](=O)[O-])c3)ccc2C)cc1,–,-41.1%
C=CCn1c(N)c(C(=O)N2CCOCC2)sc1=S,–,17.6%
CC(C)CN(CC(C)C)S(=O)(=O)N1CCC(C(=O)NCc2ccc3c(c2)OCO3)CC1,–,inactive: -20.6%
CC(OC(=O)C1CCN(S(=O)(=O)c2ccccc2)CC1)C(=O)Nc1ncc(Cl)cc1Cl (stereo unspecified),–,37.3%
COCCn1c(N)c(S(=O)(=O)c2cccs2)c2nc3ccccc3nc21,–,31.9%
Cc1ccc(CNc2nc3ccccc3n3nnnc23)cc1,–,46.9%
Cc1cccc(N2CCN(C(=O)C34CC5CC(CC(C5)C3)C4)CC2)c1C,–,34.1%
Cc1noc(C)c1CSCC(=O)N1CCN(c2ccc([N+](=O)[O-])cc2)CC1,–,inactive: -83.2%
CC(C)=CCC1=C(O)c2ccccc2C(=O)C1=O,active: 3.98 µM,–
COc1ccc(N(Cc2ccccc2)C(=O)c2nc(S(C)(=O)=O)ncc2Cl)cc1,–,inactive: -96.5%
COC(=O)c1ccccc1NC(=O)Nc1cnccn1,–,36.7%
CC(Cc1ccc(O)c(O)c1)(NN)C(=O)O (stereo unspecified),–,inactive: -1.01%
O=C(NC(=S)Nc1ccc(N2CCOCC2)cc1)c1ccco1,active: 15.8 µM,–
COc1ccc(OC)c(-c2[nH]nc3c2C(c2ccco2)C(C#N)=C(N)O3)c1 (stereo unspecified),–,37.7%
CCC1=Nc2cc(C(=O)NCCc3ccc(OC)c(OC)c3)ccc2Sc2ccccc21,–,inactive: -39.5%
CC(=O)Nc1ccc(N/C=C/C(=O)c2ccco2)cc1,active: 28.2 µM,–
COCCn1c(CN2CCN(c3cccc(Cl)c3)CC2)nc2c1c(=O)n(C)c(=O)n2C,–,inactive: -60.2%
